The values that follow are results of earlier work, collected in patent US9987231B2, “Compositions and methods for delivery of omeprazole plus acetylsalicylic acid” (POZEN INC., priority 2011, dated 2018).

For the data set the following is noted: 20° C.

Structures are written as SMILES.

Regarding `O=C(O)c1ccccc1O` [Salicylic acid, 2-hydroxybenzenecarboxylic acid], the Solubility in water was 0.2 g/100 ml H2O.
